Assay results published in the supplement of paper PMC10849652.
The list shows a part of the results.

Sequences of proteins named here, by UniProt entry; tags and fusion partners are left off. A change or cut given only in a name is not applied to a line headed by its entry.
UniProt Q9UJX4, whole entry, looked up: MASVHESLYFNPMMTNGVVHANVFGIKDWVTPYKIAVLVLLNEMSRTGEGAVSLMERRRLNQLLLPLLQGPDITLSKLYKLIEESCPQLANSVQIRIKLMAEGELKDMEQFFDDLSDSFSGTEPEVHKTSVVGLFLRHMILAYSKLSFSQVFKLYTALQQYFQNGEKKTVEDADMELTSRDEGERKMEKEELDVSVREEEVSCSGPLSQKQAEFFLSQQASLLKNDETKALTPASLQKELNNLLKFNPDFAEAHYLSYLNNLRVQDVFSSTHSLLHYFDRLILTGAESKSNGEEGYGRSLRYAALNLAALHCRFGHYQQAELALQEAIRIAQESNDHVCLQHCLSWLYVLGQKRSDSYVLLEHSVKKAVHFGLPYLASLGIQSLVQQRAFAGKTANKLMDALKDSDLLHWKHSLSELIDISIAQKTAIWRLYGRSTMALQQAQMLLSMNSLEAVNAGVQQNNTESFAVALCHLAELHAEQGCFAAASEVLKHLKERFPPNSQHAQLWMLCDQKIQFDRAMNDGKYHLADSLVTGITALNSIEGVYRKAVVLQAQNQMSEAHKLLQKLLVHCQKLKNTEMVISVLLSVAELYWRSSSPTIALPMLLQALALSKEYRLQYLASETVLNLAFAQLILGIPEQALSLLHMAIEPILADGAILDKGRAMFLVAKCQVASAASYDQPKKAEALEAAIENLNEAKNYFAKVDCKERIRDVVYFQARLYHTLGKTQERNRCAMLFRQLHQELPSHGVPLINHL
UniProt Q8IZ07: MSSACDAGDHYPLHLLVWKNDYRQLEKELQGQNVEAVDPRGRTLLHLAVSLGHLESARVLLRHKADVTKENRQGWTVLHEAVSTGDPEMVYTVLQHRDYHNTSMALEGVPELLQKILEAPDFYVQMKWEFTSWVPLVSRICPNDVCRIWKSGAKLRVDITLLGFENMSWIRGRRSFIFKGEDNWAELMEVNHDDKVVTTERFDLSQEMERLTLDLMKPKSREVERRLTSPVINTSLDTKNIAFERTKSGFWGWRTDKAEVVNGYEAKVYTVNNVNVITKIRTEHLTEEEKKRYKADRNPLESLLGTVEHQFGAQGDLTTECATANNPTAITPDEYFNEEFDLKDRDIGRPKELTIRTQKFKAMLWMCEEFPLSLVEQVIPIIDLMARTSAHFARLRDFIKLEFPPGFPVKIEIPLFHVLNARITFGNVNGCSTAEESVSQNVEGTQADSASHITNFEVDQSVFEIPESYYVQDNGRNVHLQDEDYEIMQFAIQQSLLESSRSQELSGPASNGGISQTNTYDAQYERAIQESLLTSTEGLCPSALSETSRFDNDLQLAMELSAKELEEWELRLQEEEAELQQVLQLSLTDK
UniProt P02656: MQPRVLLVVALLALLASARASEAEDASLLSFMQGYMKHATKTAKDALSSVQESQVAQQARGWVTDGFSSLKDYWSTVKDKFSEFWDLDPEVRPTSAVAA
UniProt Q92888: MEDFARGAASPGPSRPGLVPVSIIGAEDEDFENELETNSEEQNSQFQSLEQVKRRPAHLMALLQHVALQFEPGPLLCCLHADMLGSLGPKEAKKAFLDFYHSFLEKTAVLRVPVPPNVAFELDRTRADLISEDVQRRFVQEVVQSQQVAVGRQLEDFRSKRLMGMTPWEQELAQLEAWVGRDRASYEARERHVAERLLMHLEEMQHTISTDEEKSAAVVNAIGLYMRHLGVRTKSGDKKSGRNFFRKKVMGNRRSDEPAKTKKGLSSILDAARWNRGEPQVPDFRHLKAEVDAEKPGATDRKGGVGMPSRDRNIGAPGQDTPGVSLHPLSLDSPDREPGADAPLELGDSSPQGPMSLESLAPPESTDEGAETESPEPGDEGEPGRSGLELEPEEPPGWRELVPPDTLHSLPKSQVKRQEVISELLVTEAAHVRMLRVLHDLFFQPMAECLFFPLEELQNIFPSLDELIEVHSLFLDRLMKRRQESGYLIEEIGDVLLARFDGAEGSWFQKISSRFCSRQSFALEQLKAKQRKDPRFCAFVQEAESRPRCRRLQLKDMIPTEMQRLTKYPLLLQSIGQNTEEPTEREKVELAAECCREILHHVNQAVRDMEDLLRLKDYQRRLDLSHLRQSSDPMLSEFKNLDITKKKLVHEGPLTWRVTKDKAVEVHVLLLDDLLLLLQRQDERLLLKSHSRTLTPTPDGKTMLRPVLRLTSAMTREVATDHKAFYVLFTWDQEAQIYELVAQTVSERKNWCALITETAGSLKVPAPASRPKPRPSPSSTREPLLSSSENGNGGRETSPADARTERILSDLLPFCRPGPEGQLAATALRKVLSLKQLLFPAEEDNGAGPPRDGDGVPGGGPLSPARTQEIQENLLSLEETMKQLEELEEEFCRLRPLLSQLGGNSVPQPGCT
UniProt Q9NQW6: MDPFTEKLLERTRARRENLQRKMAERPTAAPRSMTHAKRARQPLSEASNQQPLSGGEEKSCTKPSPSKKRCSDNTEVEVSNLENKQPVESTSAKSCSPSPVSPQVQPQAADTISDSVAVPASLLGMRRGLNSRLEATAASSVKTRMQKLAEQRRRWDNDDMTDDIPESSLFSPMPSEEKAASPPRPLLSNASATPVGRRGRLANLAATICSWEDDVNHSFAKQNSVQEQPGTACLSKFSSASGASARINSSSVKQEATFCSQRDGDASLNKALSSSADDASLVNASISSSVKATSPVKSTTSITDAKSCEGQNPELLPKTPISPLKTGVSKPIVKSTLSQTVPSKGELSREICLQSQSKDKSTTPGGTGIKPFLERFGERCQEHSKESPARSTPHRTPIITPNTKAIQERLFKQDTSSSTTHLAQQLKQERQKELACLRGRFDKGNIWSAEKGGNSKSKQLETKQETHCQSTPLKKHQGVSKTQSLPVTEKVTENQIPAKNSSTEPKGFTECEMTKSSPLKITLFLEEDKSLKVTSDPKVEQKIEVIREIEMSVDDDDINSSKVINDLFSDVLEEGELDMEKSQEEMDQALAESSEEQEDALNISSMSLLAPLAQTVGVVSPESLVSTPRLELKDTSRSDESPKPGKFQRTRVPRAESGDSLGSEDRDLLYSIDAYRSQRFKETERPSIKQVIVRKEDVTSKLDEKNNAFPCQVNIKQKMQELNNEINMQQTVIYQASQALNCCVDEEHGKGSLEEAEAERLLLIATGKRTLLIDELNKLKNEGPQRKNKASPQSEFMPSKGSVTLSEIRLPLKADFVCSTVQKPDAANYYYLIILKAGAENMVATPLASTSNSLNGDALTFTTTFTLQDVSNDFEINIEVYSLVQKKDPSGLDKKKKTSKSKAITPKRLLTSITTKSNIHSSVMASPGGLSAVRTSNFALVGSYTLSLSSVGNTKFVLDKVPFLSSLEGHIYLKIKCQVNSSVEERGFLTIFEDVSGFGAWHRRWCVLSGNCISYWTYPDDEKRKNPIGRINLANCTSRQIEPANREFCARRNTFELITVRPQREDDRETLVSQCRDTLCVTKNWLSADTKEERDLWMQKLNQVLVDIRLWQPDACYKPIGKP
UniProt Q9BZZ5: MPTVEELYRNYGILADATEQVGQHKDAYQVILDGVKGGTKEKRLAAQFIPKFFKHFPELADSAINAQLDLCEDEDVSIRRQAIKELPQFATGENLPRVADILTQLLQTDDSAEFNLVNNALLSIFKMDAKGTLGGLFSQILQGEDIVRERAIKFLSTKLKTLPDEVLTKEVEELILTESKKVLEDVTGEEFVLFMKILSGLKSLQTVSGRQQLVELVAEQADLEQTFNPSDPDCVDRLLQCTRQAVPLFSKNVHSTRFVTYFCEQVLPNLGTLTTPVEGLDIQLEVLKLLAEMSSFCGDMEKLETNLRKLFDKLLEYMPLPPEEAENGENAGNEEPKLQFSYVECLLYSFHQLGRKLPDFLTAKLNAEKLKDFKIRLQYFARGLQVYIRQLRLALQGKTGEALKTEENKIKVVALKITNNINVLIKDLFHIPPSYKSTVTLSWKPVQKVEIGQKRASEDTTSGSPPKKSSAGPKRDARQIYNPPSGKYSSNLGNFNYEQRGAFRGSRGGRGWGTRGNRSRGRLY
UniProt Q8N392: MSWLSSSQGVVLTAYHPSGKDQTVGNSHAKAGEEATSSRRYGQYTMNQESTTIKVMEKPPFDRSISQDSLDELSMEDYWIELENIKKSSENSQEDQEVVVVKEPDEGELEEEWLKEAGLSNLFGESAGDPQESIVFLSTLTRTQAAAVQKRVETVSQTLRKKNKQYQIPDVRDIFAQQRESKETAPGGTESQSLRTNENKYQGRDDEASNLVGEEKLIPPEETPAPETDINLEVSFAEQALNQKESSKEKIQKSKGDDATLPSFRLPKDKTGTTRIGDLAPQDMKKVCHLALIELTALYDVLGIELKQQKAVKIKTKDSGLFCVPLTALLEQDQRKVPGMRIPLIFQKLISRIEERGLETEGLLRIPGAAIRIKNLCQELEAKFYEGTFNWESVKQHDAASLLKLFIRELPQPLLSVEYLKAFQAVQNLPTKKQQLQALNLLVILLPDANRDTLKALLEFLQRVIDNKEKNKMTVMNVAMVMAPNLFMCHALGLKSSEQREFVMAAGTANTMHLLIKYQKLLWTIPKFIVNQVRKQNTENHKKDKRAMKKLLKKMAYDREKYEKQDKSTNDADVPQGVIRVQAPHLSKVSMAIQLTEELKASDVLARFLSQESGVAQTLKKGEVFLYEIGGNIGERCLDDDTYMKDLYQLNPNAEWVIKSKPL
UniProt Q9Y6D5: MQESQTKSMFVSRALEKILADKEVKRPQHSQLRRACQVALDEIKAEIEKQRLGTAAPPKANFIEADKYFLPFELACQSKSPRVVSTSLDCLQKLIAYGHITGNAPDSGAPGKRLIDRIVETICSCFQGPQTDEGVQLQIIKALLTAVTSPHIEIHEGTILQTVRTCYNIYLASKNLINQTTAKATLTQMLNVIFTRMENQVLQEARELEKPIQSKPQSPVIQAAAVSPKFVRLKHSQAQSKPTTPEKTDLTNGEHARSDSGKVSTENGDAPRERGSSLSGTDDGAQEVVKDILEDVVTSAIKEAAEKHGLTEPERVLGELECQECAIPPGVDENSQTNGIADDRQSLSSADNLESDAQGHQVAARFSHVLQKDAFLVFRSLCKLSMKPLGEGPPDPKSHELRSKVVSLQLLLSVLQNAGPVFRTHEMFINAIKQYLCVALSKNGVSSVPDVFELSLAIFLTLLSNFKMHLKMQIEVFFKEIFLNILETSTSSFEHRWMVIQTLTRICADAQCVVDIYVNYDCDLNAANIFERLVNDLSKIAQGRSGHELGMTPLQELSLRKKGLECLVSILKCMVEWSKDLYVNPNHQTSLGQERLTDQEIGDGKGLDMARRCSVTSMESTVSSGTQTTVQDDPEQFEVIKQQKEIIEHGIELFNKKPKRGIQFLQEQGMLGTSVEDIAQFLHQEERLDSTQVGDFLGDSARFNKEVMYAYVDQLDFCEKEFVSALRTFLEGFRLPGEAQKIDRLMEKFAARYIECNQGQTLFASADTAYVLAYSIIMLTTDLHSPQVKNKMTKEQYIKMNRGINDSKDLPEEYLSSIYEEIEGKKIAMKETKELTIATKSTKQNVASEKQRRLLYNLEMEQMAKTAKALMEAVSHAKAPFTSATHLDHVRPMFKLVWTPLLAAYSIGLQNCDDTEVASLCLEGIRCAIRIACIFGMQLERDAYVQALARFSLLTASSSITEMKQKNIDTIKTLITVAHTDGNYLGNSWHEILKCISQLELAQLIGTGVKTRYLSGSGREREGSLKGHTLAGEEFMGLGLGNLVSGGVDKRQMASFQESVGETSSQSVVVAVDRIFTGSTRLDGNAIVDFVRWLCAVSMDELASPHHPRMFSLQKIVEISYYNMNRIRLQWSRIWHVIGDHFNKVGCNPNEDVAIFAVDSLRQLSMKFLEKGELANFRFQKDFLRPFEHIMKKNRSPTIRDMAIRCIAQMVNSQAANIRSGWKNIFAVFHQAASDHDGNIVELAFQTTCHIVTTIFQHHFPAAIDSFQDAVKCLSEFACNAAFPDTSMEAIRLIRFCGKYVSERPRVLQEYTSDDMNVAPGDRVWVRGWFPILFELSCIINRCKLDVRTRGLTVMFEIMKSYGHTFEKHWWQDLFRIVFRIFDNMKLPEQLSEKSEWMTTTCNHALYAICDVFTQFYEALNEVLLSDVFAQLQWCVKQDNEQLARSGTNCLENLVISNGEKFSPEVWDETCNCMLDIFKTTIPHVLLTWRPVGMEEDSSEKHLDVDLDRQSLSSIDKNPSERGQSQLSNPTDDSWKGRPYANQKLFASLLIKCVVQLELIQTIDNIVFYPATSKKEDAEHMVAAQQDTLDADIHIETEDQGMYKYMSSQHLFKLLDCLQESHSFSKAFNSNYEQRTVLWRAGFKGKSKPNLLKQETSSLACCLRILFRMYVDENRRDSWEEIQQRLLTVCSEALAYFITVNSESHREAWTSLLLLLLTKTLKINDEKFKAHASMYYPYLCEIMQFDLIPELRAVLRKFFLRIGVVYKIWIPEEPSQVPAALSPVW

What follows are targets tested with c1cn2cc(-c3ccc4cn[nH]c4c3)nc(Nc3ccc(N4CCOCC4)cc3)c2n1 [entospletinib] (assay: log2 fold change, soluble protein after heating vs DMSO (PISA); higher = thermal stabilisation; K562 cells, 10 uM, 30 min; active = over 0.2 and 3.5 SD of the protein, either way, in both replicates (recomputed)).
Summary of the method: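 K562 cells at 2×10^6 cells/mL were exposed to 10 μM compound for 30 min, then aliquots were heated for 3 min across 48°C-58°C, pooled, and extracted in PBS containing 0.5% NP-40 at 4°C. The supernatant after 21,000xg for 90 min was taken as soluble protein and measured by TMTpro 16plex LC-MS/MS with channel sums equalised. Thermal stability is reported relative to control samples, with values from duplicates. Fold changes are given on a log2 scale.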

log2 fold change, inactive:
AP1B1 isoform 3 (UniProt Q10567) -0.071
ANAPC5 (UniProt Q9UJX4) 0.013
APOE (UniProt P02649) 0.107
APOA1 (UniProt P02647) 0.131
AP3M1 (UniProt Q9Y2T2) -0.041
ARID1A (UniProt O14497) -0.103
ARHGDIB (UniProt P52566) 0.003
ANKRD13A (UniProt Q8IZ07) 0.063
ANO10 (UniProt Q9NW15) 0.004
ANKRD52 (UniProt Q8NB46) 0.513
ANAPC7 (UniProt Q9UJX3) 0.035
AP1S2 (UniProt P56377) -0.074
APOC3 (UniProt P02656) 0.228
ARF1 (UniProt P84077) 0.022
ANTXR2 isoform 4 (UniProt P58335) 0.025
AP5M1 (UniProt Q9H0R1) 0.024
APOOL (UniProt Q6UXV4) 0.031
AP3S1 (UniProt Q92572) -0.054
ARHGEF1 isoform 3 (UniProt Q92888) 0.134
ANLN (UniProt Q9NQW6) -0.053
ANP32A (UniProt P39687) -0.1
API5 (UniProt Q9BZZ5) -0.038
ARHGAP22 isoform 2 (UniProt Q7Z5H3) -0.062
ANKRD17 (UniProt O75179) 0.091
ANKRD36 (UniProt A6QL64) 0.233
AP1S1 (UniProt P61966) -0.003
APOO (UniProt Q9BUR5) 0.018
ANO6 isoform 2 (UniProt Q4KMQ2) 0.109
ANKRD54 (UniProt Q6NXT1) -0.018
ARHGAP18 (UniProt Q8N392) -0.008
ANXA3 (UniProt P12429) -0.062
ARFGEF2 (UniProt Q9Y6D5) -0.019

An excerpt from further up:
log2 fold change, inactive:
ANO6 isoform 2 (UniProt Q4KMQ2) 0.109
ANKRD54 (UniProt Q6NXT1) -0.018
